Patent publication US8883798B2, “Pyrimidine compounds inhibiting the formation of nitric oxide and prostaglandin E2, method of production thereof and use thereof” (Ustav Organicke Chemie a Biochemie Akademie Ved CR, V.V.I., priority 2011, dated 2014)
At least one structure is not confirmed: it was looked up by name or label, or the drawing left a doubt.

System: production of nitric oxide (NO)
Assay: Production of nitric oxide (NO) in cultures of mouse peritoneal cells stimulated with IFN-γ plus LPS (Griess reagent)
Assay type: cell-based, mice
Conditions: Table 3A; IFN-g plus LPS; 24 h
Protocol: Under in vitro conditions, the effect of the pyrimidine compounds according to this invention was tested in terms of the production of nitric oxide (NO) and in terms of the production of prostaglandin E2 (PGE2) in cultures of the peritoneal cells of mice.
NO is a product of the metabolism of L-arginine, quickly changes to […], which are then measured using the Griess reagent system. Under normal conditions, the production of NO is practically zero. It only occurs after some stimulation. In these experiments, interferon-gamma (IFN-γ) and bacterial lipopolysacharide (LPS) were used as stimulators. The values of NO induced in this way fluctuated in the individual experiments in a range from 52 to 89 μmol·l^−1; for the purposes of comparison between the experiments they were considered as 100%. The production of NO after the application of the substances was expressed in percentage with respect to the control values. […]
NO production was induced using IFN-g (5000 pg/mL) plus LPS (100 pg/mL); evaluated (Griess reagent) after 24 h of the cell cultivation (2×10^6/mL). PGE2 was induced using LPS (10 ng/mL); evaluated (ELISA) following 6 h cultivation of cells (3×10^6/mL). Cell longevity was evaluated using WST-1 (tetrazolium salt), following 24 h cultivation of cells (1×10^6/mL). […]

Nc1nc(Cl)c(Cc2ccccc2)c(Cl)n1 [Substance 34]
Production of nitric oxide IC50 (μmol · 1^−1) average value and range of values: 403/171-948/ μmol · 1^−1

CCC(C)c1c(Cl)nc(NC=O)nc1Cl (centres unmarked) [Substance 54]
Production of nitric oxide IC50 (μmol · 1^−1) average value and range of values: 3.3/2.3-5.0/ μmol · 1^−1
